Test [1] addresses His-tagged wild-type MET (WT-MET) (UniProt P08581). Briefly: co-IP; His antibody (66005-1-Ig) with protein A/G magnetic beads, lysate of WT-MET or MUT-MET-transfected PI-resistant KAS-6/1 and U266 cells, bound proteins by Western blot.
Test [2] deals with MET proto-oncogene, receptor tyrosine kinase (MET) (human (endogenous in KAS-6/1 and U266)) (UniProt P08581). Description: co-IP; MET antibody (ab216330) with protein A/G magnetic beads overnight at 4 °C, non-denaturing lysate of PI-resistant KAS-6/1 and U266 cells, bound proteins by Western blot; rabbit IgG as negative control.
Test [3] shares this target. Description: co-IP; MET antibody, lysate of control or MUC20 OE-transfected PI-resistant KAS-6/1 and U266 cells, bound proteins by Western blot; rabbit IgG as negative control. On the technique in general: A western blot detects proteins with antibodies after separation by electrophoresis.

Sequences of proteins named here, by UniProt entry; tags and fusion partners are left off. Residues count along the entry.
UniProt P08581, residues 25-1390: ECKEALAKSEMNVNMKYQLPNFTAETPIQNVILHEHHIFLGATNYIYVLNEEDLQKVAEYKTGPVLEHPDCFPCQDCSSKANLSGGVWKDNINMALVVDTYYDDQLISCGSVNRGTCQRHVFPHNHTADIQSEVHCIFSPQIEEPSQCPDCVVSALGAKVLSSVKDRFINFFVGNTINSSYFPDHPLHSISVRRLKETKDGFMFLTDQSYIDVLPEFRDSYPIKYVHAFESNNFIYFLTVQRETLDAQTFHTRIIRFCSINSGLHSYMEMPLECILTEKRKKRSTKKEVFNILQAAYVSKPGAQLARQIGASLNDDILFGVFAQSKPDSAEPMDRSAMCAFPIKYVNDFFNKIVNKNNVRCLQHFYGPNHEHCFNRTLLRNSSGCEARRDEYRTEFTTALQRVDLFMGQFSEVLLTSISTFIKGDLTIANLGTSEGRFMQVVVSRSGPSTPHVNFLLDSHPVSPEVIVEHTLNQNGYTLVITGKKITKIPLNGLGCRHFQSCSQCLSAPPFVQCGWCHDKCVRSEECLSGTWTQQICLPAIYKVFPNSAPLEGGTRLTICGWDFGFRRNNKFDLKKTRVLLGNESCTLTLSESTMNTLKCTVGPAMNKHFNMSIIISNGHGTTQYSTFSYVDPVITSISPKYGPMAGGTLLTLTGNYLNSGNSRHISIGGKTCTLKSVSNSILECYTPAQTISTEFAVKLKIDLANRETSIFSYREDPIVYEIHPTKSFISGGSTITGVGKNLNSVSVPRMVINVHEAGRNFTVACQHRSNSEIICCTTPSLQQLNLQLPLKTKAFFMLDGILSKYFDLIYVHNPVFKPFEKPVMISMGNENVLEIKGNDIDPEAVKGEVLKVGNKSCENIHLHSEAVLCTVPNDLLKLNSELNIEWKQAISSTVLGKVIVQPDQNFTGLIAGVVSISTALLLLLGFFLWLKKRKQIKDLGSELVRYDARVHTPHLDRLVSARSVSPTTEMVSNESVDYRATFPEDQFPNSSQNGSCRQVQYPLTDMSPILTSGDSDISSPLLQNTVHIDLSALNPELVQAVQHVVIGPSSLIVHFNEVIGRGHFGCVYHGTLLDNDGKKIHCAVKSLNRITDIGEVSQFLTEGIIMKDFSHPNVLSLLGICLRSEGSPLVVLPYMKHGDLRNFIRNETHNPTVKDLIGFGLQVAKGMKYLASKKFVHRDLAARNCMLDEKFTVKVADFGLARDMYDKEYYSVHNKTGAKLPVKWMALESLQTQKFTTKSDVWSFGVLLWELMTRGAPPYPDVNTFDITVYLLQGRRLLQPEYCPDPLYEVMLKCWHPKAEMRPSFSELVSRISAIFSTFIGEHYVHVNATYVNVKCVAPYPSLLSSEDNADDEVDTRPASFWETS
UniProt P42771: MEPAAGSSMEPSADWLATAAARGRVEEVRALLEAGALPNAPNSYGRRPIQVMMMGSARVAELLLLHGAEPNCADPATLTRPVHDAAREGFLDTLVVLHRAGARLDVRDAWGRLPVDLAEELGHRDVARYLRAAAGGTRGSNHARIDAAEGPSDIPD

Results are given in words; binding and its absence hold for the method and conditions named. In cells and extracts the contact can be indirect. Some entries that bind do so weakly or less than the wild type.

For the molecule “Cyclin-dependent kinase inhibitor 2 A (CDKN2A) (from UniProt P42771 1-156)”, the binding result in test [1], in test [2] and in test [3] was “binds” each time.

B1: Mucin 20 (MUC20) (protein, UniProt Q8N307 26-709)
chain: GPSTRRADTAMTTDDTEVPAMTLAPGHAALETQTLSAETSSRASTPAGPIPEAETRGAKRISPARETRSFTKTSPNFMVLIATSVETSAASGSPEGAGMTTVQTITGSDPREAIFDTLCTDDSSEEAKTLTMDILTLAHTSTEAKGLSSESSASSDSPHPVITPSRASESSASSDGPHPVITPSRASESSASSDGPHPVITPSRASESSASSDGPHPVITPSRASESSASSDGPHPVITPSRASESSASSDGPHPVITPSRASESSASSDGPHPVITPSRASESSASSDGPHPVITPSRASESSASSDGPHPVITPSRASESSASSDGLHPVITPSRASESSASSDGPHPVITPSRASESSASSDGPHPVITPSWSPGSDVTLLAEALVTVTNIEVINCSITEIETTTSSIPGASDTDLIPTEGVKASSTSDPPALPDSTEAKPHITEVTASAETLSTAGTTESAAPDATVGTPLPTNSATEREVTAPGATTLSGALVTVSRNPLEETSALSVETPSYVKVSGAAPVSIEAGSAVGKTTSFAGSSASSYSPSEAALKNFTPSETPTMDIATKGPFPTSRDPLPSVPPTTTNSSRGTNSTLAKITTSAKTTMKPPTATPTTARTRPTTDVSAGENGGFLLLRLSVASPEDLTDPRVAERLMQQLHRELHAHAPHFQVSLLRVRRG
For B1, the binding entry in test [2] was “binds”.

B2: MUC20 overexpressed from a lentiviral vector (MUC20 OE) (protein, UniProt Q8N307 26-709)
chain: B1 chain
For the molecule B2, in test [3], the binding result is recorded as “binds”.

Source of the values: PMC10913264.
